Data as given in article PMC4911038.

Tests used:
[1] = target: T1, SmATG12 (Sordaria macrospora autophagy-associated ubiquitin-like protein ATG12) (Sordaria macrospora) (UniProt F7W503); assay: condition: only SmATG7 as GAL4-AD fusion (prey) with SmATG12 as GAL4-BD fusion (bait); two-hybrid; GAL4 system: BD baits (pGBKT7 derivatives) in strain Y187 mated with AD preys (pGADT7 derivatives) in strain AH109, or both plasmids co-transformed into AH109; interaction read as growth on SD -Trp -Leu -His/-Ade; serial dilutions; 30°C, 3-5 days
T1 sequence: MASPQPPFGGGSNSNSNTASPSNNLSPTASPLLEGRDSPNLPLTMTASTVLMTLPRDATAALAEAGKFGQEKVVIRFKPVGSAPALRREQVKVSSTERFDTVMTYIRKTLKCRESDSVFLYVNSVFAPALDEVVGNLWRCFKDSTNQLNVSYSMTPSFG

[2] = target: T1, SmATG12 (Sordaria macrospora autophagy-associated ubiquitin-like protein ATG12) (Sordaria macrospora); assay: two-hybrid; GAL4 system: BD baits (pGBKT7 derivatives) in strain Y187 mated with AD preys (pGADT7 derivatives) in strain AH109, or both plasmids co-transformed into AH109; interaction read as growth on SD -Trp -Leu -His/-Ade; serial dilutions; 30°C, 3-5 days
[3] = target: SmATG7 (Sordaria macrospora E1-like enzyme ATG7) (Sordaria macrospora); assay: as above

In the case of “SmATG7 (Sordaria macrospora E1-like enzyme ATG7)”, the binding [1] is reported as “no binding”.

For “SmATG8 (Sordaria macrospora ubiquitin-like protein ATG8)”, the binding [2] was “no binding”.

B1: SmATG12 (Sordaria macrospora autophagy-associated ubiquitin-like protein ATG12) (protein, UniProt F7W503 1-159)
chain: MASPQPPFGGGSNSNSNTASPSNNLSPTASPLLEGRDSPNLPLTMTASTVLMTLPRDATAALAEAGKFGQEKVVIRFKPVGSAPALRREQVKVSSTERFDTVMTYIRKTLKCRESDSVFLYVNSVFAPALDEVVGNLWRCFKDSTNQLNVSYSMTPSFG
In the case of B1, the binding [3] is reported as “binds”.

These are yes or no findings as the source states them, for the method shown. For part of these data: Binding calls can cover weak binding; strength is not graded here.
